# Library screening results

Sequences of proteins named here, by UniProt entry; tags and fusion partners are left off.
UniProt E9BF75, entry or part of it: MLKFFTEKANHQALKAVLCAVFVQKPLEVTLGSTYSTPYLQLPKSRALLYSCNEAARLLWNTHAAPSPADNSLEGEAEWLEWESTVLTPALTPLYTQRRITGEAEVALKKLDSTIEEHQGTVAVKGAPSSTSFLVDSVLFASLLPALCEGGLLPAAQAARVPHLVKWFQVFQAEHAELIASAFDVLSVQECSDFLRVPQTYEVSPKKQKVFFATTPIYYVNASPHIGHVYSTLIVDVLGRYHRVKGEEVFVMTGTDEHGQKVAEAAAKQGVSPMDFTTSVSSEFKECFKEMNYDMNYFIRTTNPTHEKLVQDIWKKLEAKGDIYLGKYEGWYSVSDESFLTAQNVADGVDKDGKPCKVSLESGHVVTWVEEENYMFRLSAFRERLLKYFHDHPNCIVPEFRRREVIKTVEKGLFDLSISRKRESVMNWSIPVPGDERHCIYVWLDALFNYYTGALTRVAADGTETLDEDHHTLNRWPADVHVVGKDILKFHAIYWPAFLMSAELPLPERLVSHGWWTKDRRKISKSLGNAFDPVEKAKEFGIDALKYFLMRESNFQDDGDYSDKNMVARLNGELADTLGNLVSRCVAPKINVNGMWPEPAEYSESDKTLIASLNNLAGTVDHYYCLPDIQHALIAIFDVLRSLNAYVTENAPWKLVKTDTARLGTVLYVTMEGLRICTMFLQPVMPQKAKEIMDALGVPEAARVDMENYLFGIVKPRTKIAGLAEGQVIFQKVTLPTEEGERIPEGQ

Mtb heat-shock: 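Assay on Mycobacterium tuberculosis, filed only as a heat shock assay from Cornell; the read-out is not stated. The concentration is filed as 10 mM, unlikely as a test dose, so the dose is not known. Direction is inferred from retests: higher values go with stronger inhibition. Of about 69,000 compounds tested this way, about 930 (1.4%) reached 50% or more in at least one test.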
LdMetRS: 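Methionyl-tRNA synthetase (putative), Leishmania donovani (UniProt E9BF75). Primary screen of methionyl-tRNA synthetase; the read-out is not stated. The test concentration is not given. Values are per cent inhibition. Of about 68,000 compounds tested this way, about 24 (0.035%) reached 50% or more in at least one test.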
Mtb growth Cornell: 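Whole-cell assay for inhibitors of Mycobacterium tuberculosis growth, labelled Cornell in the record; the read-out is not stated. The concentration is filed as 10 mM, unlikely as a test dose, so the dose is not known. The record gives no direction; compounds strong in two other growth screens of this library score well above the rest, so higher reads as stronger inhibition. Size under these conditions: about 53,000 compounds, about 900 of them at 50% or above in at least one test.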

All values are in %.
The record does not define 0% and 100%; most values in the screen are far below 50% and negative numbers occur (in some assays of this library far below -100).
Compounds were drawn at random from those tested, without regard to their results.

- COc1ccccc1C1SCC(=O)Nc2n[nH]cc21 (stereo unspecified) | Mtb heat-shock: 12.82%; LdMetRS: 11.97%; Mtb growth Cornell: 22.82%
- COC(C)C(=O)N(CC(N)=O)Cc1cccc(Oc2ccccc2)c1 (stereo unspecified) | Mtb heat-shock: -30.51%; LdMetRS: 8.635%; Mtb growth Cornell: -49.61%
- CNC(=O)[C@@H]1C[C@@H](N)CN1Cc1ccc2cccc(OC)c2n1 | Mtb heat-shock: 5.918%; LdMetRS: 9.091%; Mtb growth Cornell: 23.19%
- O=C1COC2(CCN(S(=O)(=O)C3CC3)CC2)CN1c1cccnc1 | LdMetRS: 7.781%
- NC(=O)c1csc(C(=O)N2CCCCC2Cn2cccn2)c1 (stereo unspecified) | Mtb heat-shock: 4.056%; LdMetRS: 9.206%; Mtb growth Cornell: -1.455%
- Fc1cnc(N2CCc3nnc(COc4ccccn4)n3CC2)nc1.O=C(O)C(F)(F)F | Mtb heat-shock: 1.809%; Mtb growth Cornell: -1.934%
- CCCc1ccc(S(=O)(=O)NC(=O)CCc2cscn2)cc1 | Mtb heat-shock: -2.164%; LdMetRS: 19.11%; Mtb growth Cornell: 8.956%
- Cc1noc(C)c1CC(=O)Nc1ccn(CC(N)=O)n1 | Mtb heat-shock: 20.01%; LdMetRS: 15.92%; Mtb growth Cornell: -4.708%
- COC(=O)c1ccc2c(c1)CCCN2S(=O)(=O)c1cn(C)c(C)n1 | Mtb heat-shock: -0.5836%; LdMetRS: 13.84%; Mtb growth Cornell: -8.151%
- CC(NCC(=O)N1CCc2sccc2C1)c1ccccc1F (stereo unspecified) | Mtb heat-shock: -30.67%; LdMetRS: 14.24%; Mtb growth Cornell: 3.914%
- Cc1nc(CN2CCCN(C(=O)c3cccnc3O)CC2)cs1 | Mtb heat-shock: 8.786%; LdMetRS: 18.7%
- O=C(CCOc1ccc(Cl)cc1)NCCCn1cccn1 | Mtb heat-shock: 13.21%; LdMetRS: 7.619%; Mtb growth Cornell: -20.14%
- [H][C@@]12CC[C@H](Oc3cccc(F)c3)[C@]1([H])CN(C(=O)c1cncnc1)C2 | Mtb heat-shock: 4.099%; Mtb growth Cornell: -2.427%
- Cc1c2ncn(CC(=O)NC(C)C)c(=O)c2nn1C | Mtb heat-shock: -24.61%; LdMetRS: 5.263%
- Cc1nn(C)cc1CN1CCC(C2Nc3ccccc3S(=O)(=O)N2)CC1 (stereo unspecified) | Mtb heat-shock: -7.13%; LdMetRS: 11.99%; Mtb growth Cornell: 9.713%
- CC(=O)N1CCCCC12CCCN(Cc1ccco1)C2 (stereo unspecified) | LdMetRS: 12.32%
- CN1CCN(Cc2cnc3n2CCN(C(=O)c2ccoc2)C3)CC1 | Mtb heat-shock: 7.242%; LdMetRS: 18.73%; Mtb growth Cornell: 31.55%
- COc1c(C)cnc(CN2CCn3c(C)nnc3C2)c1C | Mtb heat-shock: -14.56%; LdMetRS: 13.17%
- Cc1cccc(NC(=O)c2[nH]nc(C(C)C)c2Br)n1 | Mtb heat-shock: -3.278%; LdMetRS: 8.889%; Mtb growth Cornell: 16.14%
- c1cc(-c2ccn(CCN3CCCC3)n2)cc(-c2nccs2)c1 | Mtb heat-shock: 30.47%; LdMetRS: 10.68%
- CC(=O)N1C[C@@H](F)[C@@H](OCc2nc3ccccc3o2)C1 | Mtb heat-shock: -3.114%; LdMetRS: 9.831%; Mtb growth Cornell: 2.351%
- COCCN(Cc1cnn(C)c1)C(=O)C1COc2c(cccc2OC)C1 (stereo unspecified) | Mtb heat-shock: -5.616%; LdMetRS: 16.77%; Mtb growth Cornell: 30.24%
- Cc1ccc(CC(=O)N2CCN(C(C)c3ccccc3F)CC2)cn1 (stereo unspecified) | Mtb heat-shock: -1.792%; LdMetRS: 7.754%
- CCc1ccc(CN2CCN(c3ccc(C#N)cc3)C(=O)C2)nc1 | Mtb heat-shock: -11.54%; LdMetRS: 14.63%
- N#CC1(C(=O)N2Cc3cc(-c4cc[nH]n4)ccc3C2c2cnco2)CC1 (stereo unspecified) | Mtb heat-shock: -13.22%; LdMetRS: 13.41%; Mtb growth Cornell: 29.58%
- CCN1CC(C(=O)N2CCc3cc(C(N)=O)n(C)c3C2)CCC1=O (stereo unspecified) | Mtb heat-shock: 25.56%; LdMetRS: 8.447%; Mtb growth Cornell: -47.63%
- Cc1cc(C)c(CCNC(=O)CN2CCCN(C(N)=O)CC2)c(C)c1 | Mtb heat-shock: -7.259%; LdMetRS: 0.9639%; Mtb growth Cornell: -6.413%
- O=C(O)C(F)(F)F.O=C(c1cccnc1)N1CCC2(CC1)COCCN(c1ncccn1)C2 | Mtb heat-shock: -52.76%; Mtb growth Cornell: -5.922%
- CNC(=O)CC1CCN(C(=O)NCc2cn3c(C)cccc3n2)CC1 | Mtb heat-shock: -3.894%; LdMetRS: 23.28%; Mtb growth Cornell: 20.05%
- Cc1nc(COC[C@@H]2CC[C@H]3NCC[C@H]3O2)cs1 | LdMetRS: 0%
- CCNC(=O)N1CCC(OC)c2ccccc2N(CC(=O)NC)C(=O)C1 (stereo unspecified) | Mtb heat-shock: 45.71%; LdMetRS: 8.493%; Mtb growth Cornell: 6.335%
- [H][C@@]12CCN(S(=O)(=O)CCC)[C@]1([H])CC[C@H](c1nc(C)no1)O2 | Mtb heat-shock: 2.824%; Mtb growth Cornell: 1.335%

Some entries from above, unchanged:

{"smiles": "CC(NCC(=O)N1CCc2sccc2C1)c1ccccc1F", "stereo": "stereo unspecified", "Mtb heat-shock": -30.67, "LdMetRS": 14.24, "Mtb growth Cornell": 3.914}
{"smiles": "CCNC(=O)N1CCC(OC)c2ccccc2N(CC(=O)NC)C(=O)C1", "stereo": "stereo unspecified", "Mtb heat-shock": 45.71, "LdMetRS": 8.493, "Mtb growth Cornell": 6.335}
{"smiles": "O=C(O)C(F)(F)F.O=C(c1cccnc1)N1CCC2(CC1)COCCN(c1ncccn1)C2", "Mtb heat-shock": -52.76, "Mtb growth Cornell": -5.922}

The values are deposited in ChEMBL (CHEMBL3988442, “University of Dundee, Small-Polar-MMV Screening Library” (2021)).